Our source for the survivor count and T/C values is PubChem BioAssay AID248 (DTP/NCI, 2004).

The list is a part of this screen's results and no random one: it is rich in T/C values a quarter to a half above the control, in often repeated tests (any T/C) and in doses without a T/C. Further doses and runs are listed elsewhere. T/C is the treated group as % of the vehicle group. Some doses have a count of surviving animals in place of a T/C: the source holds a T/C of zero for them, seemingly a mark for toxic or unscored doses. Some survivor counts are full or nearly so, which does not show that the dose was tolerated: survival well below the control is almost never listed, so the zero probably covers shortened survival too. Survivors were counted at the toxicity check, usually on the fifth day, unless a day is given; later deaths do not show. Schedule codes are those of the source, taken here to give the interval after Q, in days (D) or hours (H), and the number of doses after X. Marks such as (2×) say how often a value occurs here. Some schedules carry Z or #; the key to these is not given. Where survival is the endpoint, this PubChem deposit counts one and a half times the control or more as active, and values a quarter to a half above the control carry no call in these data; other NCI protocols may use other cut-offs. Some entries hold several experiments; the values are given in rising order.

The subject of this experiment is L1210 leukemia ip in BDF1 mice, survival T/C. Put plainly: NCI In Vivo Anticancer Drug Screen. Data for tumor model L1210 Leukemia (intraperitoneal) in B6D2F1 (BDF1) mice. To be noted: T/C endpoint: mean survival time, higher T/C = longer survival.
Where [1] appears, read: dose: 200.0 mg/kg/injection, schedule: Q01DX001 (ip), vehicle: saline.
The mark [2] stands for this setting: dose: 100.0 mg/kg/injection, schedule: Q01DX009 (ip), vehicle: Klucel (hydroxypropylcellulose) (HPC).
The mark [3] stands for this setting: dose: 100.0 mg/kg/injection, schedule: Q01DX009 (ip), vehicle: saline.
Setting [4] is: dose: 200.0 mg/kg/injection, schedule: Q01DX009 (ip), vehicle: saline.
[5] abbreviates: dose: 400.0 mg/kg/injection, schedule: Q01DX009 (ip), vehicle: saline.
The mark [6] stands for this setting: dose: 400.0 mg/kg/injection, schedule: Q01DX009 (ip), vehicle: Klucel (hydroxypropylcellulose) (HPC).
Where [7] appears, read: dose: 400.0 mg/kg/injection, schedule: Q01DX001 (ip), vehicle: other.
[8] abbreviates: dose: 100.0 mg/kg/injection, schedule: Q04DX003 (ip), vehicle: saline with Tween-80.

As for `O=C1CCC(C(=O)O)N1` (configuration not stated), the survivor count (dose: 400.0 mg/kg/injection, schedule: Q04DX003 (ip), vehicle: saline with Tween-80) is reported as 0 of 6.

With `CSC1SCC2C(=O)N(C)C(C(C)C)C(=O)OCC(NC(=O)c3cnc4ccccc4n3)C(=O)NC(C)C(=O)N(C)C1C(=O)N(C)C(C(C)C)C(=O)OCC(NC(=O)c1cnc3ccccc3n1)C(=O)NC(C)C(=O)N2C` (configuration not stated), where the note is “dose: 30.0 micrograms/kg/injection, schedule: Q01DX009 (ip), vehicle: saline with Tween-80”, the T/C is 126 % of control.

Turning to `O=C(O)/C(Br)=C/C(=O)c1ccccc1`, the survivor count (dose: 150.0 mg/kg/injection, schedule: Q01DX001 (ip), vehicle: steroid suspending solution) is listed as 3 of 6.

As for `CC1(C)N=C(N)N=C(N)N1c1cccc(OCCCC#N)c1`, the survivor count by setting is: under setting [1], 1 of 3; (dose: 400.0 mg/kg/injection, schedule: Q01DX001 (ip), vehicle: saline) 0 of 3.

Consider `CC(C)CN(CCCCO)CC(C)C`, for which the survivor count (dose: 400.0 mg/kg/injection, schedule: Q01DX009 (ip), vehicle: saline with Tween-80) is recorded as 1 of 6.

On to `O=CNNC(=O)c1cccc([N+](=O)[O-])c1`, for which the survivor count (dose: 400.0 mg/kg/injection, schedule: Q04DX003 (ip), vehicle: other) is recorded as 2 of 6.

Consider `CC(=O)c1ccccc1Br`, for which the survivor count under setting [2] is given as 6 of 6.

As for `CCOC(=O)/C(C(N)=O)=C(/C)C=C(C)C`, the survivor count by setting is: (dose: 40.0 mg/kg/injection, schedule: Q01DX001 (ip), vehicle: acetone) 0 of 6; (dose: 75.0 mg/kg/injection, schedule: Q01DX001 (ip), vehicle: acetone) 0 of 6; (dose: 150.0 mg/kg/injection, schedule: Q01DX001 (ip), vehicle: acetone) 0 of 6; (dose: 300.0 mg/kg/injection, schedule: Q01DX001 (ip), vehicle: acetone) 0 of 6.

Consider `CCN(CC)Cc1ccc(N)cc1`, for which the survivor count reads like this: (dose: 50.0 mg/kg/injection, schedule: Q01DX009 (ip), vehicle: saline) 6 of 6; under setting [3], 1 of 6; under setting [4], 0 of 6; under setting [5], 0 of 6.

Regarding `O=C(CCCCC(=O)Nc1cc(C2=NCCN2)cc(C2N=CCN2)c1)Nc1cc(C2=NCCN2)cc(C2=NCCN2)c1` (configuration not stated), the survivor count (dose: 20.0 mg/kg/injection, schedule: Q01DX Z (ip), vehicle: carboxymethylcellulose (CMC)) is listed as 1 of 6.

Regarding `CCN(CCO)CCNc1ccc(CO)c2sc3cc(Cl)ccc3c(=O)c12`, the survivor count under setting [6] is on record as 3 of 6.

Take `CCCCSN1CCCCC1`: the survivor count (dose: 400.0 mg/kg/injection, schedule: Q04DX002 (ip), vehicle: saline with Tween-80) was 0 of 3.

For `C[NH-].C[NH-].[I][Pt+2][I]`, the T/C is, setting by setting: (dose: 25.0 mg/kg/injection, schedule: Q04DX003 (ip), vehicle: other) 132 % of control; (dose: 100.0 mg/kg/injection, schedule: Q01DX001 (ip), vehicle: other) 127 % of control. Further, the survivor count is, setting by setting: (dose: 100.0 mg/kg/injection, schedule: Q04DX003 (ip), vehicle: other) 4 of 6; (dose: 150.0 mg/kg/injection, schedule: Q01DX001 (ip), vehicle: other) 1 of 6; (dose: 200.0 mg/kg/injection, schedule: Q01DX001 (ip), vehicle: other) 0 of 6; under setting [7], 0 of 6.

Consider `COc1cc(\C=N/N=C/C=C/c2ccccc2)cc(OC)c1OC`, for which, under setting [8], the T/C is reported as 87, 88, 95 % of control and the survivor count is recorded as 3 of 3. Further, where the note is “dose: 200.0 mg/kg/injection, schedule: Q04DX003 (ip), vehicle: saline with Tween-80”, the T/C is 90, 93, 95 % of control (2×).

For the compound `O=C(c1ccccc1)C1(Br)CCCCC1`, the survivor count under setting [4] was 6 of 6.

Consider `O=C(O)C(F)(F)F`, for which, under “dose: 100.0 mg/kg/injection, schedule: Q01DX001 (ip), vehicle: water”, the survivor count was 1 of 6.

In the case of `CN(C)C(=S)NNC(=O)c1ccc(Cl)cc1`, the survivor count is reported as 0 of 6 (dose: 100.0 mg/kg/injection, schedule: Q01DX001 (ip), vehicle: saline with Tween-80); 0 of 6 (dose: 200.0 mg/kg/injection, schedule: Q01DX001 (ip), vehicle: saline with Tween-80); 0 of 6 (dose: 400.0 mg/kg/injection, schedule: Q01DX001 (ip), vehicle: saline with Tween-80).

In the case of `CCN(CC)Cc1cc(Nc2c(C)cnc3cc(Cl)ccc23)ccc1O`, the survivor count under setting [3] was 3 of 6 (2×), the survivor count under setting [4] is 0 of 6 and the survivor count under setting [5] is 0 of 6.

Take `Cc1[nH]c2ccccc2c1C`: the survivor count under setting [6] is given as 1 of 6.

Take `CCC(/C=N/N=C(N)N)OC` (configuration not stated): the survivor count reads like this: (dose: 15.0 mg/kg/injection, schedule: Q01DX Z (ip), vehicle: saline) 3 of 6; (dose: 30.0 mg/kg/injection, schedule: Q01DX Z (ip), vehicle: saline) 0 of 6; (dose: 60.0 mg/kg/injection, schedule: Q01DX Z (ip), vehicle: saline) 0 of 6; (dose: 120.0 mg/kg/injection, schedule: Q01DX Z (ip), vehicle: saline) 0 of 6; (dose: 512.0 mg/kg/injection, schedule: Q01DX Z (oral), vehicle: saline) 3 of 6; (dose: 1024.0 mg/kg/injection, schedule: Q01DX Z (oral), vehicle: saline) 0 of 6.

As for `CC(Oc1nc2c(c(=O)n(C)c(=O)n2C)n1C)C1CCCCC1` (configuration not stated), the survivor count under setting [7] is 1 of 4.

With `CC(C)(Oc1ccc(Cl)cc1Cl)C(=O)O`, the survivor count is 5 of 6 (dose: 200.0 mg/kg/injection, schedule: Q01DX009 (ip), vehicle: gum acacia) and 0 of 6 (dose: 400.0 mg/kg/injection, schedule: Q01DX009 (ip), vehicle: gum acacia).

Turning to `OCC(I)C(CO)[n+]1ccccc1` (configuration not stated), the survivor count (dose: 100.0 mg/kg/injection, schedule: Q04DX003 (ip), vehicle: saline) is reported as 0 of 6; the survivor count (dose: 200.0 mg/kg/injection, schedule: Q04DX003 (ip), vehicle: saline) is 0 of 6; the survivor count (dose: 400.0 mg/kg/injection, schedule: Q04DX003 (ip), vehicle: saline) is 0 of 6.

Take `COc1ccc(O)c(Br)c1`: the survivor count (dose: 400.0 mg/kg/injection, schedule: Q01DX009 (ip), vehicle: other) is listed as 6 of 6.

Turning to `O=C(NCCNC(c1ccccc1)C(NCCNC(=O)c1ccccc1)c1ccccc1)c1ccccc1` (configuration not stated), for the setting “dose: 200.0 mg/kg/injection, schedule: Q01DX009 (ip), vehicle: saline with Tween-80”, the survivor count is 6 of 6.

Take `Clc1cc(Cl)c2c(c1)Cc1cc(Cl)cc(N=Cc3ccc4c(c3)OCO4)c1-2`: the survivor count under setting [6] is recorded as 3 of 6.

As for `O=C(Nc1ccc(Cl)cc1Cl)Nc1ccc(Cl)cc1Cl`, the survivor count (dose: 400.0 mg/kg/injection, schedule: Q04DX002 (ip), vehicle: Klucel (hydroxypropylcellulose) (HPC)) is listed as 3 of 3.

Regarding `CS(=O)(=O)OCCN(CCOS(C)(=O)=O)c1ccc(C=Nc2ccc(-c3csc(-c4ccc(Br)cc4)n3)cc2)cc1`, the survivor count under setting [2] is 6 of 6.

Take `O=[N+]([O-])c1ccc(SCCCN2CCCCC2)c([N+](=O)[O-])c1`: the survivor count runs as follows: (dose: 100.0 mg/kg/injection, schedule: Q01DX001 (ip), vehicle: carboxymethylcellulose (CMC)) 1 of 4; (dose: 200.0 mg/kg/injection, schedule: Q01DX001 (ip), vehicle: carboxymethylcellulose (CMC)) 0 of 4; (dose: 400.0 mg/kg/injection, schedule: Q01DX001 (ip), vehicle: carboxymethylcellulose (CMC)) 0 of 4.

Consider `CCCCCCCCCCCCn1ncc2ccc([N+](=O)[O-])cc21`, for which the survivor count (dose: 100.0 mg/kg/injection, schedule: Q01DX001 (ip), vehicle: saline) is reported as 4 of 4 and the survivor count under setting [1] is recorded as 4 of 4.

Turning to `CC[N+](C)(CC)c1ccc(/C=N\N(C)C)cc1`, the survivor count is on record as 0 of 3 (dose: 50.0 mg/kg/injection, schedule: Q01DX009 (ip), vehicle: Klucel (hydroxypropylcellulose) (HPC)); 0 of 3 under setting [2]; 0 of 3 (dose: 200.0 mg/kg/injection, schedule: Q01DX009 (ip), vehicle: Klucel (hydroxypropylcellulose) (HPC)).
